The list shows a part of the results.
compound: CC1=CC=C(C=C1)SC2=C3C=C(SC3=CN=C2)C(=O)N; assay: log2 fold change, soluble protein after heating vs DMSO (PISA); higher = thermal stabilisation; K562 cells, 10 uM, 30 min; active = over 0.2 and 3.5 SD of the protein, either way, in both replicates (recomputed)
Summary of the method: (§1)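 K562 cells at 2×10^6 cells/mL were given 10 μM compound for 30 min. Aliquots then went through 3 min of heating across 48°C-58°C, were pooled, and were extracted in PBS with 0.5% NP-40 at 4°C, and the supernatant after 21,000xg for 90 min was quantified by TMTpro 16plex LC-MS/MS with channel sums equalised. Thermal stability relative to control samples, from duplicates, is given as log2 fold change.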

By UniProt entry, the sequences of proteins in these tests, tags left out. Where a name states a change or a piece, a line headed by the entry shows the natural chain unless it says otherwise.
UniProt Q96CG3: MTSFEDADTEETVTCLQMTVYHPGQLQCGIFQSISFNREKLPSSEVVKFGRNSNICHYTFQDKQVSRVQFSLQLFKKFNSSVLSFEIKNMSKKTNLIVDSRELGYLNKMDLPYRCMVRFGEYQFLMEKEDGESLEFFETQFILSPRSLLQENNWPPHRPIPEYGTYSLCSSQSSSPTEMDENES
UniProt Q9BQ70: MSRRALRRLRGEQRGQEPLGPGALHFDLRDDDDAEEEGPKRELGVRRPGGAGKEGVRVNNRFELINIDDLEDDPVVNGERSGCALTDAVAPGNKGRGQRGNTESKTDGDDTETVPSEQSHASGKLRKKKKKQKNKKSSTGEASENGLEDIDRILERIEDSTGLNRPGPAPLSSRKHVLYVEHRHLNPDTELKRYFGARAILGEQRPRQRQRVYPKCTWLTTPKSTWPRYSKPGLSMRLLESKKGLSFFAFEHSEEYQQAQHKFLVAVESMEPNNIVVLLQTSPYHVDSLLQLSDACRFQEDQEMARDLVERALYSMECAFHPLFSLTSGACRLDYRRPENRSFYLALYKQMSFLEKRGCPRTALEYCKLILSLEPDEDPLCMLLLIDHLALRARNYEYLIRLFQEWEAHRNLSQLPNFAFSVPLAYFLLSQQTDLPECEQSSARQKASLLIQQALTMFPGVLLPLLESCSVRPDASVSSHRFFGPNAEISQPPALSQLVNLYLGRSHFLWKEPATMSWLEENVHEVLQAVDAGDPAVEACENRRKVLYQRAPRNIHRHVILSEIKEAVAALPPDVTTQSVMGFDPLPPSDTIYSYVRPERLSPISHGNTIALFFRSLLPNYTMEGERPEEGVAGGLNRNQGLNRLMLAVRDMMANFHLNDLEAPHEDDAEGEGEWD
UniProt Q9P0N9: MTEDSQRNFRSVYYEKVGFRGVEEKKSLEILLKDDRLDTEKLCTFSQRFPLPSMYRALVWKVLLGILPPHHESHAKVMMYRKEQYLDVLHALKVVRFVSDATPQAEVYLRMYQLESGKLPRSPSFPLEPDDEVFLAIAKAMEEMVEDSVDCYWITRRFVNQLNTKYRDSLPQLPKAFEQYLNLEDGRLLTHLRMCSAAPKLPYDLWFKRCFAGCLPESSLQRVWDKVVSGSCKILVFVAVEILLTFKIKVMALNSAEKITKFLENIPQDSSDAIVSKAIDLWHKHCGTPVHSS
UniProt Q13488, whole entry, looked up: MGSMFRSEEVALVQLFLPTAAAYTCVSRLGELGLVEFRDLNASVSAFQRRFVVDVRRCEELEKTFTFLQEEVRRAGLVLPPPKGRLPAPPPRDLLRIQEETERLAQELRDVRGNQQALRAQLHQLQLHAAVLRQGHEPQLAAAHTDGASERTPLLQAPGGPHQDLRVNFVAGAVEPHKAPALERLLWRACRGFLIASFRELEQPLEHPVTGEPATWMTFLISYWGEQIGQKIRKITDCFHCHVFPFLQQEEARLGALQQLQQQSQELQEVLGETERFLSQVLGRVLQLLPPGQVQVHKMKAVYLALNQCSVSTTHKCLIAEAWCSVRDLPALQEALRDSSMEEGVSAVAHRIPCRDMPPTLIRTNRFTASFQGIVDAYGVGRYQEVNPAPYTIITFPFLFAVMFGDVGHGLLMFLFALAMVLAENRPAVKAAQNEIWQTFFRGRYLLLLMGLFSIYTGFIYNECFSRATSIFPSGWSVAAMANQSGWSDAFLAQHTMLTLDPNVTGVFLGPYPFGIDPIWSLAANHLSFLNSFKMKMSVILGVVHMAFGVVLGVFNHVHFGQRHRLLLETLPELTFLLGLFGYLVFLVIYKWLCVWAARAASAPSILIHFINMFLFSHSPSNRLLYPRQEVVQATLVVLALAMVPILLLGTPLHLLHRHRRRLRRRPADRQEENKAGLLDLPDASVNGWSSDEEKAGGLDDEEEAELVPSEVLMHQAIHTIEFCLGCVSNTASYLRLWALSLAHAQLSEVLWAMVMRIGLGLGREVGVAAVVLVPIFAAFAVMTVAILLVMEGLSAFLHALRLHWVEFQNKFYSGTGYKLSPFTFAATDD
UniProt Q9UPU7: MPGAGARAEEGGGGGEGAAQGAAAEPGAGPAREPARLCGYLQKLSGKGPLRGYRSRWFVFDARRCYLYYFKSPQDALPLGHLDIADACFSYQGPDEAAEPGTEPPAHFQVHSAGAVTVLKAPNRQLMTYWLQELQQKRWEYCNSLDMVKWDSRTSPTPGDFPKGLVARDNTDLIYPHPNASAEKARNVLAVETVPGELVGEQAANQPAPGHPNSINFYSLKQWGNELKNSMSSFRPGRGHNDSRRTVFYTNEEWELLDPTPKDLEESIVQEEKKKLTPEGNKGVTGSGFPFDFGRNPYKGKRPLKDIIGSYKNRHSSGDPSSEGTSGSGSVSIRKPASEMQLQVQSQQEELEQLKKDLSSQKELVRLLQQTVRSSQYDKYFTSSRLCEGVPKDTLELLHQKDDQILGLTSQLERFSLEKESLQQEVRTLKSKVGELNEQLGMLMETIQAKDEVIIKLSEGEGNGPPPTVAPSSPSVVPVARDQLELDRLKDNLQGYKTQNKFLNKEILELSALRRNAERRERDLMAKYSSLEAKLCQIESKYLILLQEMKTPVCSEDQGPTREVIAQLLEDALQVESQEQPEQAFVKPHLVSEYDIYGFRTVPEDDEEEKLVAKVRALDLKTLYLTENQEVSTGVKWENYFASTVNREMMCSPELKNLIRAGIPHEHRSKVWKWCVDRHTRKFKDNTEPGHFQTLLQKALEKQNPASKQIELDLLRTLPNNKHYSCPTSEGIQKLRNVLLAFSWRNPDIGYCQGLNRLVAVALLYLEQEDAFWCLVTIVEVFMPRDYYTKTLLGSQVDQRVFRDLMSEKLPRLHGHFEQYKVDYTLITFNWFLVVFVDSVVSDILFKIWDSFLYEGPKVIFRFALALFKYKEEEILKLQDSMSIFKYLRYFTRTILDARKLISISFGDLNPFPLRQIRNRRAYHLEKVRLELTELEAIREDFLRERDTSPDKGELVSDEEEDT
UniProt Q96N21: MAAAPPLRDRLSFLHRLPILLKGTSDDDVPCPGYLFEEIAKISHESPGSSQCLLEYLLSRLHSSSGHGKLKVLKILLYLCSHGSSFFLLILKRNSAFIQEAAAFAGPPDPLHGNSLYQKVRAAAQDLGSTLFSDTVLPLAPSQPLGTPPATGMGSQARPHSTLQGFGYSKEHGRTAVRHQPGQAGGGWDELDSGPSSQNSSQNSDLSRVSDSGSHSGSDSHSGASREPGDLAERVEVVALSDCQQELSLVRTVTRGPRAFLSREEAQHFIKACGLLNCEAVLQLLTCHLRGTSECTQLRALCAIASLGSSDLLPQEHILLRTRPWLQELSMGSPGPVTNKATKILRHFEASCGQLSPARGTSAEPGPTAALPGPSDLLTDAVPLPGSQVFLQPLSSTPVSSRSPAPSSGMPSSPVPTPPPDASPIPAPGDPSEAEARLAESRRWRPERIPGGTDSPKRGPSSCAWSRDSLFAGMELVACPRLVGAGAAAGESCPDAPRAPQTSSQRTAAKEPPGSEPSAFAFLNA
UniProt Q8IYN2: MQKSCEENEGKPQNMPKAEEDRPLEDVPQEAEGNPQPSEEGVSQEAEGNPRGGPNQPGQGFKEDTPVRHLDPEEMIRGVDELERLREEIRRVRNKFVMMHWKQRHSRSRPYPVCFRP
UniProt Q9H5L6: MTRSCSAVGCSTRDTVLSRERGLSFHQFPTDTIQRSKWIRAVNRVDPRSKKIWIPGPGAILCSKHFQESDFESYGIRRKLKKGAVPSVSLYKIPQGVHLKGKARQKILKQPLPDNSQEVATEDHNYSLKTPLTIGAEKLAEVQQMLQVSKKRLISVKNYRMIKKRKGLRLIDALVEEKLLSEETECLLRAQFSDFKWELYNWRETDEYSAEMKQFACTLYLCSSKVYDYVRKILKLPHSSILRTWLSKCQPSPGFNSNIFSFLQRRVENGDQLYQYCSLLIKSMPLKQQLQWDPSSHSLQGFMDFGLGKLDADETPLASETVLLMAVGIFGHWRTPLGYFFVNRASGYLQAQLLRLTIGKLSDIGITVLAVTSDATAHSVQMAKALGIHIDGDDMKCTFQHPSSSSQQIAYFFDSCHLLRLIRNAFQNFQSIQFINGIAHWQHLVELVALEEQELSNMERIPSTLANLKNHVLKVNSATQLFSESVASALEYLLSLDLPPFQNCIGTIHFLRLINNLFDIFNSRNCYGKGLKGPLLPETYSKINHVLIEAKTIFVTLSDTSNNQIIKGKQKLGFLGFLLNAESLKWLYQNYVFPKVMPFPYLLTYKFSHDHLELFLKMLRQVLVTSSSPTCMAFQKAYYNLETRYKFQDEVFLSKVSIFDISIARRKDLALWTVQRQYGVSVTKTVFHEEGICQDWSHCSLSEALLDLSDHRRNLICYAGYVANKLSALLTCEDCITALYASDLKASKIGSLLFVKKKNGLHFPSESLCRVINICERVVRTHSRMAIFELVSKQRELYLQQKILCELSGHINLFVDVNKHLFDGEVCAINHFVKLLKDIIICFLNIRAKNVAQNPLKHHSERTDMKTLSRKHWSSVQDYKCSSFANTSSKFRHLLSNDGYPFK

Target | log2 fold change
THTPA (UniProt Q9BU02) | inactive: -0.053
TIFA (UniProt Q96CG3) | inactive: -0.075
THEMIS2 (UniProt Q5TEJ8) | inactive: -0.008
TCTN3 (UniProt Q6NUS6) | inactive: -0.029
TEX30 (UniProt Q5JUR7) | inactive: 0.047
TBP (UniProt P20226) | inactive: -0.056
TBCK (UniProt Q8TEA7) | inactive: -0.077
TFAP4 (UniProt Q01664) | inactive: 0.198
TENM4 (UniProt Q6N022) | inactive: -0.028
TCF25 (UniProt Q9BQ70) | inactive: -0.007
TBC1D7 (UniProt Q9P0N9) | inactive: 0.036
TLCD3A (UniProt Q8TBR7) | inactive: 0.003
TDRD3 isoform 3 (UniProt Q9H7E2) | inactive: -0.16
TGM2 (UniProt A2A299) | inactive: -0.023
TCF4 isoform 3 (UniProt P15884) | inactive: 0.058
TCP11L1 (UniProt Q9NUJ3) | inactive: 0.241
TBX1 isoform 3 (UniProt O43435) | inactive: -0.355
TCEAL4 isoform 2 (UniProt Q96EI5) | inactive: 0.076

compound: CC1=NC(=CC=C1)C2=C(N=C(N2)C(C)(C)C)C3=CC4=NC=CN=C4C=C3; assay: as above
Summary of the method: as §1

Target | log2 fold change
TCF3 isoform 2 (UniProt P15923) | inactive: -0.046
TIFA (UniProt Q96CG3) | inactive: -0.196
THEMIS2 (UniProt Q5TEJ8) | inactive: -0.079
TCTN3 (UniProt Q6NUS6) | inactive: 0.056
TEX30 (UniProt Q5JUR7) | inactive: -0.062
TBP (UniProt P20226) | inactive: -0.071
TBCK (UniProt Q8TEA7) | inactive: -0.106
TCIRG1 (UniProt Q13488) | inactive: -0.052
TFAP4 (UniProt Q01664) | inactive: 0.117
TENM4 (UniProt Q6N022) | inactive: 0.048
TBC1D2B (UniProt Q9UPU7) | inactive: -0.123
TEPSIN (UniProt Q96N21) | inactive: -0.169
TCF25 (UniProt Q9BQ70) | inactive: -0.079
TCAF2 (UniProt A6NFQ2) | inactive: -0.028
TDRD7 (UniProt Q8NHU6) | inactive: 0.035
TCEAL8 (UniProt Q8IYN2) | inactive: 0.101
TBX1 isoform 3 (UniProt O43435) | inactive: -0.063
THAP12 (UniProt O43422) | inactive: 0.108
THAP9 (UniProt Q9H5L6) | inactive: -0.065
TET2 (UniProt Q6N021) | inactive: -0.074
TCEAL4 isoform 2 (UniProt Q96EI5) | inactive: 0.046

From the supplement of paper PMC10849652
